Laboratory results published in PubChem BioAssay AID186 (DTP/NCI, 2004).
Values are animals surviving of animals treated; these mice carried no tumour. Survivors were counted at the toxicity check, usually on the fifth day, unless a day is given; later deaths do not show. Schedules are NCI's codes, read here as Q, the interval in days (D) or hours (H), X, the number of doses. Signs of the kind (2×) say how often a value occurs here. Some doses were run more than once; the results are listed from low to high.

System: B6D2F1 mice, nontumored toxicity test, survival
Test: NCI In Vivo Anticancer Drug Screen. Data for tumor model Nontumored Animals (Toxicity Test) in B6D2F1 (BDF1) mice

CC/C(=C(/CC)c1ccc(O)cc1)c1ccc(O)cc1
survivor count (dose: 8.0 mg/kg/injection, schedule: Q03HX016 (ip), vehicle: saline with Tween-80): 8 of 8
survivor count (dose: 8.0 mg/kg/injection, schedule: Q03HX024 (ip), vehicle: saline with Tween-80): 6 of 8
survivor count (dose: 16.0 mg/kg/injection, schedule: Q01DX009 (ip), vehicle: saline with Tween-80): 8 of 8
survivor count (dose: 16.0 mg/kg/injection, schedule: Q03HX008 (ip), vehicle: saline with Tween-80): 8 of 8
survivor count (dose: 16.0 mg/kg/injection, schedule: Q03HX016 (ip), vehicle: saline with Tween-80): 8 of 8
survivor count (dose: 16.0 mg/kg/injection, schedule: Q03HX024 (ip), vehicle: saline with Tween-80): 8 of 8
survivor count (dose: 32.0 mg/kg/injection, schedule: Q01DX009 (ip), vehicle: saline with Tween-80): 8 of 8
survivor count (dose: 32.0 mg/kg/injection, schedule: Q03HX008 (ip), vehicle: saline with Tween-80): 6 of 8
survivor count (dose: 32.0 mg/kg/injection, schedule: Q03HX016 (ip), vehicle: saline with Tween-80): 6 of 8
survivor count (dose: 32.0 mg/kg/injection, schedule: Q03HX024 (ip), vehicle: saline with Tween-80): 7 of 8
survivor count (dose: 64.0 mg/kg/injection, schedule: Q01DX009 (ip), vehicle: saline with Tween-80): 7 of 8
survivor count (dose: 64.0 mg/kg/injection, schedule: Q03HX008 (ip), vehicle: saline with Tween-80): 7 of 8
survivor count (dose: 64.0 mg/kg/injection, schedule: Q03HX016 (ip), vehicle: saline with Tween-80): 7 of 8
survivor count (dose: 64.0 mg/kg/injection, schedule: Q03HX024 (ip), vehicle: saline with Tween-80): 8 of 8
survivor count (dose: 64.0 mg/kg/injection, schedule: Q04DX003 (ip), vehicle: saline with Tween-80): 8 of 8
survivor count (dose: 64.0 mg/kg/injection, schedule: Q08DX002 (ip), vehicle: saline with Tween-80): 8 of 8
survivor count (dose: 128.0 mg/kg/injection, schedule: Q01DX001 (ip), vehicle: saline with Tween-80): 8 of 8
survivor count (dose: 128.0 mg/kg/injection, schedule: Q01DX009 (ip), vehicle: saline with Tween-80): 8 of 8
survivor count (dose: 128.0 mg/kg/injection, schedule: Q03HX008 (ip), vehicle: saline with Tween-80): 1 of 8
survivor count (dose: 128.0 mg/kg/injection, schedule: Q03HX016 (ip), vehicle: saline with Tween-80): 0 of 8
survivor count (dose: 128.0 mg/kg/injection, schedule: Q03HX024 (ip), vehicle: saline with Tween-80): 0 of 8
survivor count (dose: 128.0 mg/kg/injection, schedule: Q04DX003 (ip), vehicle: saline with Tween-80): 8 of 8
survivor count (dose: 128.0 mg/kg/injection, schedule: Q08DX002 (ip), vehicle: saline with Tween-80): 8 of 8
survivor count (dose: 256.0 mg/kg/injection, schedule: Q01DX001 (ip), vehicle: saline with Tween-80): 8 of 8
survivor count (dose: 256.0 mg/kg/injection, schedule: Q01DX009 (ip), vehicle: saline with Tween-80): 7 of 8
survivor count (dose: 256.0 mg/kg/injection, schedule: Q03HX008 (ip), vehicle: saline with Tween-80): 0 of 8
survivor count (dose: 256.0 mg/kg/injection, schedule: Q03HX016 (ip), vehicle: saline with Tween-80): 0 of 8
survivor count (dose: 256.0 mg/kg/injection, schedule: Q04DX003 (ip), vehicle: saline with Tween-80): 8 of 8
survivor count (dose: 256.0 mg/kg/injection, schedule: Q08DX002 (ip), vehicle: saline with Tween-80): 8 of 8
survivor count (dose: 512.0 mg/kg/injection, schedule: Q01DX001 (ip), vehicle: saline with Tween-80): 8 of 8
survivor count (dose: 512.0 mg/kg/injection, schedule: Q01DX009 (ip), vehicle: saline with Tween-80): 0 of 8
survivor count (dose: 512.0 mg/kg/injection, schedule: Q04DX003 (ip), vehicle: saline with Tween-80): 5 of 8
survivor count (dose: 512.0 mg/kg/injection, schedule: Q08DX002 (ip), vehicle: saline with Tween-80): 6 of 8
survivor count (dose: 1024.0 mg/kg/injection, schedule: Q01DX001 (ip), vehicle: saline with Tween-80): 2 of 8
survivor count (dose: 1024.0 mg/kg/injection, schedule: Q04DX003 (ip), vehicle: saline with Tween-80): 1 of 8
survivor count (dose: 1024.0 mg/kg/injection, schedule: Q08DX002 (ip), vehicle: saline with Tween-80): 4 of 8
survivor count (dose: 2048.0 mg/kg/injection, schedule: Q01DX001 (ip), vehicle: saline with Tween-80): 1 of 8
survivor count (dose: 2048.0 mg/kg/injection, schedule: Q08DX002 (ip), vehicle: saline with Tween-80): 8 of 8

COc1cc2cc3c4cc(OC)c(OC)cc4cc[n+]3c(C)c2cc1OC (tested in a mixture with another compound)
survivor count (dose: 8.0 mg/kg/injection, schedule: Q01DX009 (ip), vehicle: Klucel (hydroxypropylcellulose) (HPC)): 8 of 8
survivor count (dose: 8.0 mg/kg/injection, schedule: Q01DX009 (ip), vehicle: clinical formulation): 8 of 8
survivor count (dose: 8.0 mg/kg/injection, schedule: Q01DX009 (ip), vehicle: water): 7 of 8
survivor count (dose: 16.0 mg/kg/injection, schedule: Q01DX009 (ip), vehicle: Klucel (hydroxypropylcellulose) (HPC)): 8 of 8
survivor count (dose: 16.0 mg/kg/injection, schedule: Q01DX009 (ip), vehicle: clinical formulation): 8 of 8
survivor count (dose: 16.0 mg/kg/injection, schedule: Q01DX009 (ip), vehicle: water): 7 of 8
survivor count (dose: 32.0 mg/kg/injection, schedule: Q01DX009 (ip), vehicle: Klucel (hydroxypropylcellulose) (HPC)): 8 of 8
survivor count (dose: 32.0 mg/kg/injection, schedule: Q01DX009 (ip), vehicle: clinical formulation): 7 of 8
survivor count (dose: 32.0 mg/kg/injection, schedule: Q01DX009 (ip), vehicle: water): 7 of 8
survivor count (dose: 64.0 mg/kg/injection, schedule: Q01DX009 (ip), vehicle: Klucel (hydroxypropylcellulose) (HPC)): 6 of 8
survivor count (dose: 64.0 mg/kg/injection, schedule: Q01DX009 (ip), vehicle: clinical formulation): 7 of 8
survivor count (dose: 64.0 mg/kg/injection, schedule: Q01DX009 (ip), vehicle: water): 6 of 8
survivor count (dose: 128.0 mg/kg/injection, schedule: Q01DX009 (ip), vehicle: Klucel (hydroxypropylcellulose) (HPC)): 6 of 8
survivor count (dose: 128.0 mg/kg/injection, schedule: Q01DX009 (ip), vehicle: clinical formulation): 2 of 8
survivor count (dose: 128.0 mg/kg/injection, schedule: Q01DX009 (ip), vehicle: water): 7 of 8
survivor count (dose: 256.0 mg/kg/injection, schedule: Q01DX009 (ip), vehicle: Klucel (hydroxypropylcellulose) (HPC)): 0 of 8
survivor count (dose: 256.0 mg/kg/injection, schedule: Q01DX009 (ip), vehicle: clinical formulation): 0 of 8
survivor count (dose: 256.0 mg/kg/injection, schedule: Q01DX009 (ip), vehicle: water): 0 of 8

OC(C1CO1)C(O)C1CO1 (configuration not stated)
survivor count (dose: 6.7 mg/kg/injection, schedule: Q04DX003 (ip), vehicle: saline): 10 of 10
survivor count (dose: 10.0 mg/kg/injection, schedule: Q01DX001 (ip), vehicle: saline): 10 of 10 (2×)
survivor count (dose: 10.0 mg/kg/injection, schedule: Q04DX003 (ip), vehicle: saline): 10 of 10
survivor count (dose: 12.5 mg/kg/injection, schedule: Q01DX001 (ip), vehicle: saline): 10 of 10 (2×)
survivor count (dose: 15.0 mg/kg/injection, schedule: Q01DX001 (ip), vehicle: saline): 10 of 10 (2×)
survivor count (dose: 15.0 mg/kg/injection, schedule: Q04DX003 (ip), vehicle: saline): 9 of 10 and 10 of 10
